{
  "source": "paper doi:10.1101/2020.05.01.072124",
  "binders": {"B1": {"name": "ATP7A, Q04656 1-1500 (protein)", "chain": "MDPSMGVNSVTISVEGMTCNSCVWTIEQQIGKVNGVHHIKVSLEEKNATIIYDPKLQTPKTLQEAIDDMGFDAVIHNPDPLPVLTDTLFLTVTASLTLPWDHIQSTLLKTKGVTDIKIYPQKRTVAVTIIPSIVNANQIKELVPELSLDTGTLEKKSGACEDHSMAQAGEVVLKMKVEGMTCHSCTSTIEGKIGKLQGVQRIKVSLDNQEATIVYQPHLISVEEMKKQIEAMGFPAFVKKQPKYLKLGAIDVERLKNTPVKSSEGSQQRSPSYTNDSTATFIIDGMHCKSCVSNIESTLSALQYVSSIVVSLENRSAIVKYNASSVTPESLRKAIEAVSPGLYRVSITSEVESTSNSPSSSSLQKIPLNVVSQPLTQETVINIDGMTCNSCVQSIEGVISKKPGVKSIRVSLANSNGTVEYDPLLTSPETLRGAIEDMGFDATLSDTNEPLVVIAQPSSEMPLLTSTNEFYTKGMTPVQDKEEGKNSSKCYIQVTGMTCASCVANIERNLRREEGIYSILVALMAGKAEVRYNPAVIQPPMIAEFIRELGFGATVIENADEGDGVLELVVRGMTCASCVHKIESSLTKHRGILYCSVALATNKAHIKYDPEIIGPRDIIHTIESLGFEASLVKKDRSASHLDHKREIRQWRRSFLVSLFFCIPVMGLMIYMMVMDHHFATLHHNQNMSKEEMINLHSSMFLERQILPGLSVMNLLSFLLCVPVQFFGGWYFYIQAYKALKHKTANMDVLIVLATTIAFAYSLIILLVAMYERAKVNPITFFDTPPMLFVFIALGRWLEHIAKGKTSEALAKLISLQATEATIVTLDSDNILLSEEQVDVELVQRGDIIKVVPGGKFPVDGRVIEGHSMVDESLITGEAMPVAKKPGSTVIAGSINQNGSLLICATHVGADTTLSQIVKLVEEAQTSKAPIQQFADKLSGYFVPFIVFVSIATLLVWIVIGFLNFEIVETYFPGYNRSISRTETIIRFAFQASITVLCIACPCSLGLATPTAVMVGTGVGAQNGILIKGGEPLEMAHKVKVVVFDKTGTITHGTPVVNQVKVLTESNRISHHKILAIVGTAESNSEHPLGTAITKYCKQELDTETLGTCIDFQVVPGCGISCKVTNIEGLLHKNNWNIEDNNIKNASLVQIDASNEQSSTSSSMIIDAQISNALNAQQYKVLIGNREWMIRNGLVINNDVNDFMTEHERKGRTAVLVAVDDELCGLIAIADTVKPEAELAIHILKSMGLEVVLMTGDNSKTARSIASQVGITKVFAEVLPSHKVAKVKQLQEEGKRVAMVGDGINDSPALAMANVGIAIGTGTDVAIEAADVVLIRNDLLDVVASIDLSRKTVKRIRINFVFALIYNLVGIPIAAGVFMPIGLVLQPWMGSAAMAASSVSVVLSSLFLKLYRKPTYESYELPARSQIGQKSPSEISVHVGIDDTSRNSPKLGLLDRIVNYSRASINSLLSDKRSLNSVVTSEPDKHSLLVGDFREDDDTAL"}},
  "target": "T1, MYC-BirA-ATOX1, O00244",
  "T1 chain": "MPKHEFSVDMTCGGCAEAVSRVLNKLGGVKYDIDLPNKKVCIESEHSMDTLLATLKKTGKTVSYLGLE",
  "experiment": "proximity labelling",
  "conditions": "remark: other sources report otherwise",
  "note": "These are yes or no findings as the source states them, for the method shown. In cells and extracts the contact can be indirect. Here binding means that the protein was enriched with, or labelled near, the bait; the list need not be complete. Tags and fused reporters may be left off the sequences shown.",
  "data": [
    {"binder": "B1", "values": [
      {"measurement": "binding", "result": "binds"}
    ]}
  ]
}
